Measurements as given in paper PMC7261183.
No constants are given. Whether binding was seen depends on the method and setting. Binding seen in cells or lysates may run through a third protein. Tags and fused reporters may be left off the sequences shown.

By UniProt entry, the sequences of proteins in these tests, tags left out.
UniProt P0A6Y8: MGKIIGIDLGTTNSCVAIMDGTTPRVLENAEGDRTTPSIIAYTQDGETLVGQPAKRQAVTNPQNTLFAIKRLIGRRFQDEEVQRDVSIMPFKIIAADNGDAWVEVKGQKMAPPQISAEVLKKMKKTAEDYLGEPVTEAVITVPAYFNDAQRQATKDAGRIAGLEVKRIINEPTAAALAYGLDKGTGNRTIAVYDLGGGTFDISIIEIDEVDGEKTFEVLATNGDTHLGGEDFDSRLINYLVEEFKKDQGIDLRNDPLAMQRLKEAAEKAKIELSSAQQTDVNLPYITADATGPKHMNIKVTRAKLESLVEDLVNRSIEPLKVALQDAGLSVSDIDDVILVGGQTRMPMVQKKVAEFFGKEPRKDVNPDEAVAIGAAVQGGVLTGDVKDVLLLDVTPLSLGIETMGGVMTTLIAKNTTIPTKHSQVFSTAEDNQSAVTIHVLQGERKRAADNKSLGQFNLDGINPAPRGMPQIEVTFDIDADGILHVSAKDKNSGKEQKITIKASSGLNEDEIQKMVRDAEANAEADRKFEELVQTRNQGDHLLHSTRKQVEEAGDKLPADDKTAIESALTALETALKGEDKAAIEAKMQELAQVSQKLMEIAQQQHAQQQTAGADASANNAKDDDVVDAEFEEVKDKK

Biological target: T1, wild-type Ocr with C-terminal Strep-tag II (bacteriophage T7) (UniProt P03775)
T1 sequence: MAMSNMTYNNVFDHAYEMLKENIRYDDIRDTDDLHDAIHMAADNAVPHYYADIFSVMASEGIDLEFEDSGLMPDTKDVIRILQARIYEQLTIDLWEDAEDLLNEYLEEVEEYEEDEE
Experiment: pull-down; Strep-tagged protein and candidate partner produced in E. coli BW25113 from compatible plasmids (BREX- or BREX+ cells); clarified lysate on a StrepTrap HP column, washed with buffer A (150 mM NaCl, 1 mM EDTA, 100 mM Tris-HCl pH 8.0), eluted with desthiobiotin; SDS-PAGE, bands identified by MALDI-TOF mass spectrometry

binding: no binding
Substance: DnaK (from UniProt P0A6Y8 1-638)
